Among all 78,000 compounds or so, about 1,800 (2.3%) were called active. Inconclusive results, whose numbers are uncertain, are shown with a selection of clear calls. No stated cut-off is given here; in the data, active means inhibition above about 30%; inconclusive means mostly about 10% to 28%; inactive means weaker than that.
The molecules below were run against Interleukin-1 receptor-like 1 (Homo sapiens) (UniProt Q01638) (assay: inhibitors of human ST2 (IL1RL1) binding to IL-33, primary screen, biochemical, AlphaLISA (AID 1259354)). Conditions: AlphaLISA ST2-Fc/biotin-IL-33 interaction, 1 h; at 17 µM, hits give high values.

Sequences of proteins named here, by UniProt entry; tags and fusion partners are left off. A change or cut given only in a name is not applied to a line headed by its entry.
UniProt Q01638: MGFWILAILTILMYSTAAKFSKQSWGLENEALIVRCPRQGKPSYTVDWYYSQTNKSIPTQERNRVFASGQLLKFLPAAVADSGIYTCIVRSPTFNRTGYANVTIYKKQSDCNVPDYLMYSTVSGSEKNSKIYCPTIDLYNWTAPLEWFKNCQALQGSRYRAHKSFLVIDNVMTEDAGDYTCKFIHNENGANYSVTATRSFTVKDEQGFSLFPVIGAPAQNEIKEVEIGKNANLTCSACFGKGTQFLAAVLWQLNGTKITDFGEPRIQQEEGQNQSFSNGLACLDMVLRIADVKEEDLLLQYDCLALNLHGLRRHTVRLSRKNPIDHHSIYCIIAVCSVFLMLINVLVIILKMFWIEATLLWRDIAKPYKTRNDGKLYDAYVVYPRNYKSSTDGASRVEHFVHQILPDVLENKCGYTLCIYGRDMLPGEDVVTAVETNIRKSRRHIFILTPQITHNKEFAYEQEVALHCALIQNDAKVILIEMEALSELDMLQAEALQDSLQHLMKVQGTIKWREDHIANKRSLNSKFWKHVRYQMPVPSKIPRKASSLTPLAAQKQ

Question: With `Cc1cc(Cl)ccc1OCCCC(=O)O` as the molecule, how does the inhibition read?
Answer: inactive

Question: Which inhibition does the source give for `COc1ccccc1N1CCN(C[C@H]2CN3CC[C@H]2C[C@@H]3CNC(=O)c2ccc(N(C)C)cc2)CC1` here?
Answer: inconclusive: 28%

Question: Which inhibition does the source give for `CNCc1cn(C[C@H]2CC3CCN2C[C@@H]3C(=O)NC(C)C)nn1` (some centres undefined) here?
Answer: inconclusive: 21%

Question: With `CCNC(=O)NC[C@H]1C[C@@H]2CCN1C[C@@H]2c1cc(-c2ccc(OC)cc2)nn1C` as the molecule, how does the inhibition read?
Answer: inactive

Question: Which inhibition does the source give for `Oc1ccc2c3c1O[C@H]1c4[nH]c5c(c4C[C@@]4(O)[C@@H](C2)N(CC2CC2)CC[C@]314)C[C@@]1(O)[C@H]2Cc3ccc(O)c4c3[C@@]1(CCN2CC1CC1)[C@H]5O4` here?
Answer: inconclusive: 14%

Question: With `O=C(O)CCCC(=O)N1C[C@@H]2C[C@H](C1)c1ccc(NC(=O)Nc3ccccc3)c(=O)n1C2` as the molecule, how does the inhibition read?
Answer: inactive

Question: With `Cc1ccc(S(=O)(=O)NC[C@H]2C[C@@H]3CCN2C[C@@H]3CN(C)c2ccccc2)cc1` as the molecule, how does the inhibition read?
Answer: inactive

Question: `CNC(=O)Oc1ccc2ncccc2c1` was tested. Which inhibition did it give?
Answer: inconclusive: 10%

Question: With `Cc1ccc(N2CCN(Cc3c(F)cccc3Cl)CC2)cc1` as the molecule, how does the inhibition read?
Answer: active: 36%

Question: `O=C(O)c1cccc2nc3ccccc3nc12` was tested. Which inhibition did it give?
Answer: inconclusive: 10%

Question: How did the inhibition turn out when `COc1ccc(C(=O)Nc2ccc3n(c2=O)C[C@H]2C[C@@H]3CN(S(C)(=O)=O)C2)cc1` was run?
Answer: inconclusive: 17%

Question: With `C=CCNC(=O)NC[C@H]1C[C@@H]2CCN1C[C@@H]2c1cc(-c2ccco2)nc(C)n1` as the molecule, how does the inhibition read?
Answer: inactive

Question: `CC(C)NC(=O)[C@H]1CN2CCC1C[C@@H]2Cn1cc(CSc2ccccc2)nn1` (some centres undefined) was tested. Which inhibition did it give?
Answer: inconclusive: 17%

Question: `C=C[C@H]1CN2CC[C@H]1C[C@@H]2CNC(=S)Nc1cccc(SC)c1` was tested. Which inhibition did it give?
Answer: inconclusive: 14%

Question: With `O=c1cccc2n1C[C@H]1C[C@@H]2CN(Cc2cc3n(n2)CCNC3)C1` as the molecule, how does the inhibition read?
Answer: inactive

Question: `Cc1nc(CC(=O)N(C)C2CCCN(CCCc3ccccc3)C2)cs1` (centres undefined) was tested. Which inhibition did it give?
Answer: inconclusive: 14%

Question: `C[N+](C)(C)CC#CCOC(=O)Nc1cccc(Cl)c1` was tested. Which inhibition did it give?
Answer: inconclusive: 15%

Question: How did the inhibition turn out when `Cc1nc(-c2ccc(C(F)(F)F)cc2)cc([C@H]2CN3CC[C@H]2C[C@@H]3CNC(=O)C2CC2)n1` was run?
Answer: inconclusive: 17%

Question: How did the inhibition turn out when `C=CCN1CCC23c4c5ccc(O)c4O[C@H]2C(=O)CC[C@@]3(O)C1C5` (some centres undefined) was run?
Answer: inconclusive: 14%

Question: Which inhibition does the source give for `CCN(C)c1ccnc(N2CCC3(CC2)CN(C)CCN3C)n1` here?
Answer: inactive

Question: How did the inhibition turn out when `Cc1ccc(-n2c(/C=C/c3ccc4c(c3)OCO4)nc3ccccc3c2=O)cc1` was run?
Answer: inconclusive: 11%

Question: With `C#C[C@H]1CN2CC[C@H]1C[C@@H]2CNC(=S)Nc1cccc(SC)c1` as the molecule, how does the inhibition read?
Answer: inconclusive: 13%

Question: `CS(=O)(=O)NC[C@H]1C[C@@H]2CCN1C[C@@H]2CN1CCN(c2ccccc2)CC1` was tested. Which inhibition did it give?
Answer: inactive

Question: With `C=CCN1CC[C@]23c4c5ccc(O)c4O[C@@H]2/C(=N\N=C2\CC[C@@]4(O)C6Cc7ccc(O)c8c7[C@@]4(CCN6CC=C)[C@@H]2O8)CC[C@@]3(O)C1C5` as the molecule, how does the inhibition read?
Answer: inconclusive: 20%

Question: With `O=S(=O)(NC[C@H]1C[C@@H]2CCN1C[C@@H]2CN1CCN(c2ccccc2)CC1)c1ccc(Cl)cc1` as the molecule, how does the inhibition read?
Answer: inactive

Question: `O=[N+]([O-])c1cccc(C(Cl)Cl)c1` was tested. Which inhibition did it give?
Answer: inconclusive: 24%

Question: Which inhibition does the source give for `C=C[C@H]1CN2CC[C@H]1C[C@@H]2CNC(=S)Nc1ccc(Cl)cc1` here?
Answer: inconclusive: 17%

Question: `Cc1ccccc1-c1ccc2n(c1=O)C[C@H]1C[C@@H]2CN(Cc2cccs2)C1` was tested. Which inhibition did it give?
Answer: inconclusive: 14%

Question: For `COc1ccccc1CNC(=O)[C@H]1CN2CCC1C[C@@H]2Cn1cc(COc2ccccc2)nn1` (some centres undefined), which inhibition is on record?
Answer: inconclusive: 23%

Question: How did the inhibition turn out when `CCc1ccc(CN2CCN(c3ccccc3C)CC2)cc1` was run?
Answer: inconclusive: 13%

Question: `O=C(Nc1ccccc1)[C@H]1CN2CCC1C[C@@H]2Cn1cc(-c2ccccc2)nn1` (some centres undefined) was tested. Which inhibition did it give?
Answer: inconclusive: 10%

Question: `O=[N+]([O-])c1ccc(C(Cl)Cl)o1` was tested. Which inhibition did it give?
Answer: active: 64%

Question: How did the inhibition turn out when `Cc1ccccc1-c1ccc2n(c1=O)C[C@H]1C[C@@H]2CN(C(=O)c2cccs2)C1` was run?
Answer: inconclusive: 10%

Question: With `O=C(c1ccco1)N1C[C@@H]2C[C@H](C1)c1c(-c3ccc(OC(F)(F)F)cc3)ccc(=O)n1C2` as the molecule, how does the inhibition read?
Answer: inconclusive: 13%

Question: How did the inhibition turn out when `C/C=C/c1ccc(=O)n2c1[C@@H]1C[C@@H](CN(C(=O)Nc3ccc(C)cc3)C1)C2` was run?
Answer: inconclusive: 11%

Question: For `COc1cccc([C@@H]2CN(CCCn3ccnc3)[C@@H]3C4CCN(CC4)[C@@H]32)c1`, which inhibition is on record?
Answer: inactive

Question: For `CC(CCc1ccccc1)NC(C)C(O)c1ccc(O)cc1` (centres undefined), which inhibition is on record?
Answer: inconclusive: 14%

Question: Which inhibition does the source give for `CCC(=O)c1ccc(OCC(=O)N2CCCN3CCC[C@H]3C2)cc1` here?
Answer: inconclusive: 16%

Question: `Cc1cccc(N2CCN(Cc3ccc(F)cc3)CC2)c1C` was tested. Which inhibition did it give?
Answer: inactive

Question: `C=C[C@H]1CN2CC[C@H]1C[C@@H]2CNS(=O)(=O)c1ccc(Cl)cc1` was tested. Which inhibition did it give?
Answer: inconclusive: 12%

Question: `C=CCN(C)C(=O)[C@H]1CN2CCC1C[C@@H]2Cn1cc(CCO)nn1` (some centres undefined) was tested. Which inhibition did it give?
Answer: inconclusive: 26%

Question: How did the inhibition turn out when `Cc1c(C(=O)c2cccc3ccccc23)c2cccc3c2n1[C@H](CN1CCOCC1)CO3` was run?
Answer: inconclusive: 14%

Question: `CC(=O)Nc1ccc(S(=O)(=O)N2C[C@@H]3C[C@H](C2)c2c(-c4cccs4)ccc(=O)n2C3)cc1` was tested. Which inhibition did it give?
Answer: inconclusive: 11%

Question: How did the inhibition turn out when `CC1(C)CC2(CCCNC2)CCO1` (centres undefined) was run?
Answer: inconclusive: 14%

Question: With `CC(C)(C)c1ccc(OCCNc2ccc([N+](=O)[O-])c3cccnc23)cc1` as the molecule, how does the inhibition read?
Answer: active: 55%

Question: How did the inhibition turn out when `O=C(c1ccco1)N1C[C@@H]2C[C@H](C1)c1c(-c3cc4ccccc4s3)ccc(=O)n1C2` was run?
Answer: inconclusive: 19%

Question: How did the inhibition turn out when `COc1cccc(N2CCN(Cc3ccc(Cl)cc3)CC2)c1` was run?
Answer: inconclusive: 24%

Question: For `C=CCN(C1=NCCN1)c1c(Cl)cccc1Cl`, which inhibition is on record?
Answer: inconclusive: 23%

Question: `O=C(c1ccccc1)c1cc(Cl)ccc1N1C(=O)C2C3C=CC(C3)C2C1=O` (centres undefined) was tested. Which inhibition did it give?
Answer: inactive

Question: `COc1ccc(OC)c(CN2CCN(c3ccccc3C)CC2)c1` was tested. Which inhibition did it give?
Answer: inactive

Question: For `O=[N+]([O-])c1ccc(N2CCCCC2)c2ncccc12`, which inhibition is on record?
Answer: active: 62%

Question: `CN1CCN(Cc2cccc(F)c2)CC1` was tested. Which inhibition did it give?
Answer: inconclusive: 18%

Question: Which inhibition does the source give for `N#C/C(=C/c1ccc(O)c(O)c1)C(N)=S` here?
Answer: inconclusive: 15%

Question: How did the inhibition turn out when `O=C(NC1CC1)C1CSC(c2cccnc2)=N1` (centres undefined) was run?
Answer: inconclusive: 14%

Question: How did the inhibition turn out when `CC(C)NC(=O)N1C[C@@H]2C[C@H](C1)c1ccc(-c3ccc(OC(F)(F)F)cc3)c(=O)n1C2` was run?
Answer: inconclusive: 14%

Question: `NC(=O)C1CCN(C2(n3nnc4ccccc43)CCCCC2)CC1` was tested. Which inhibition did it give?
Answer: inconclusive: 10%

Question: `Cc1cccc(-n2c(-c3cccnc3)nc3ccccc3c2=O)c1` was tested. Which inhibition did it give?
Answer: active: 46%

Question: How did the inhibition turn out when `Cc1cccc(N2CCN(Cc3cccc([N+](=O)[O-])c3)CC2)c1C` was run?
Answer: inconclusive: 18%

Question: How did the inhibition turn out when `CC(C)c1ccc(CN2CCN(c3ccccc3)CC2)cc1` was run?
Answer: inactive

Question: How did the inhibition turn out when `O=[N+]([O-])c1ccc(CN2CCN(c3ccccc3)CC2)cc1` was run?
Answer: inconclusive: 20%

Question: With `COc1ccc(CCNCc2ccccc2Cl)cc1` as the molecule, how does the inhibition read?
Answer: inconclusive: 10%

Question: For `CC[C@H]1CN2CC[C@H]1C[C@@H]2CNC(=S)NC1CCCCC1`, which inhibition is on record?
Answer: inactive

Question: How did the inhibition turn out when `Cn1nc(C2CCCCC2)cc1[C@H]1CN2CC[C@H]1C[C@@H]2CNC(=O)COc1ccccc1` was run?
Answer: inactive

Question: How did the inhibition turn out when `O=C(NCc1ccccc1)[C@H]1CN2CC[C@H]1C[C@@H]2Cn1cc(-c2ccccn2)nn1` was run?
Answer: inconclusive: 10%
